Some of these results come from one statement about several compounds together. At least one compound was matched to its structure with a doubt left.
Experiment: Bioavailability test, intravenous and oral administration to mice
Type: in vivo
Details: IV 15 mg/kg, PO 30 mg/kg
Excerpt: The crystal forms I and II of hydrochloride salt of nepicastat and the crystal forms of other acid addition salts of nepicastat in Table 31 were taken, and administered intravenously and orally to mice respectively, wherein: • the formulation for intravenous (IV) administration was: 5% (v/v) DMSO+10% (v/v) Solutol HS 15+85% (v/v) physiological saline; • the formulation for oral (PO) administration was: 0.5% (v/v) MC4000 aqueous solution (MC: methylcellulose).
The specific administration was as follows: • Experiment: three mice were subjected to the test in parallel for each formulation; • Body weight: about 30 g • Administration route: IV; PO • Dose administered: IV-15 mg/kg; PO-30 mg/kg; • Before administration: fasting for 12 hours before administration, and allowing mice to drink water; • After administration: allowing mice to drink water, and feeding within 2 hours after administration; • Blood collecting site: the vein at a hind leg • Blood collecting times: IV—0.083, 0.25, 0.5, 1, 2, 4, 6, 8, 24 h; • PO—0.25, 0.5, 1, 2, 4, 6, 8, 24 h.
Due to very close solubilities of the crystal forms I and II of hydrochloride salt of nepicastat in water, it was found in the experiment that both of them obtained clear solutions upon preparing the administration samples.

NCc1c[nH]c(=S)n1[C@H]1CCc2c(F)cc(F)cc2C1.O=C(O)/C=C/C(=O)O [crystal form I of fumarate salt, fumarate salt of nepicastat]
Tmax: less than 2 hours

CS(=O)(=O)O.NCc1c[nH]c(=S)n1[C@H]1CCc2c(F)cc(F)cc2C1 [crystal form I of methanesulfonate salt, methanesulfonate salt of nepicastat]
Tmax: less than 2 hours
